Patent US20050249668A1, “Nir-fluorescent cyanine dyes, their synthesis and biological use” (priority 2002, published 2005)

Assay: NIRF reflectance imaging of equimolar dyes in 96-well plate
Type: physicochemical
Details: for detectability in fluorescence imaging system: 0.16 nmole in 200 μl; for signal intensity relative to ICG: equimolar, 800 nm channel
[1] = 800 nm channel (750-770 nm excitation, 800-820 nm emission)
[2] = 700 nm channel (610-650 nm excitation, 680-720 nm emission)

| Structure (SMILES) | detectability in fluorescence imaging system [1] | signal intensity relative to ICG | detectability in fluorescence imaging system [2] |
| --- | --- | --- | --- |
| CC[N+]1=C(C=CC=CC=CC=C2N(CCCCS(=O)(=O)[O-])c3ccc(C(=O)O)cc3C2(C)C)C(C)(C)c2c1ccc1c(S(=O)(=O)[O-])cc(S(=O)(=O)[O-])cc21.[K+].[K+] [NIR1] | detectable | 7 fold |  |
| CC[N+]1=C(C=CC=CC=C2N(CCCCS(=O)(=O)[O-])c3ccc(C(=O)O)cc3C2(C)C)C(C)(C)c2c1ccc1c(S(=O)(=O)[O-])cc(S(=O)(=O)[O-])cc21.[K+].[K+] [NIR2] |  |  | detectable |
| CC1(C)C(=CC=CC=CC=CC2=[N+](CCCCS(=O)(=O)[O-])c3ccc(S(=O)(=O)[O-])cc3C2(C)C)N(CCCCS(=O)(=O)[O-])c2ccc(C(=O)O)cc21.[K+].[K+] [NIR3] | detectable | 12 fold |  |
| CC1(C)C(=C/C=C/C=C/C2=[N+](CCCCS(=O)(=O)[O-])c3ccc(S(=O)(=O)[O-])cc3C2(C)C)N(CCCCS(=O)(=O)[O-])c2ccc(C(=O)O)cc21.[K+].[K+] [NIR4] |  |  | detectable |
